Measurements published in PubChem BioAssay AID234 (DTP/NCI, 2004).
The list shows only some results of the screen, not a fair sample: it covers a few groups of compounds. Not every dose and run of a compound is shown. T/C gives the treated animals as a percentage of the vehicle group. Some T/C values are marked as having no survivor count here; that says nothing about deaths at the dose. Schedules are NCI's codes, taken here to give the interval after Q, in days (D) or hours (H), and the number of doses after X. Some doses were run more than once; the results are listed from low to high.

System: C3AKF1 mice, hamster liver cystadenocarcinoma s.c., tumor weight T/C
Assay: NCI In Vivo Anticancer Drug Screen. Data for tumor model Cystadenocarcinoma, Liver (No. 1) (Hamster) (subcutaneous) in C3AKF1 (CHKRF1) mice
Settings: T/C endpoint: mean tumor weight, schedule: Q01DX010 (ip), evaluation day not shown, higher T/C = larger tumour
Protocol: The antitumor activity of compounds was measured in mice bearing transplantable tumors. Survival or tumor size were measured and the results are expressed as the measurement made in the treated group (T) divided by the measurement made in the vehicle treated control group (C). The tumor model used in this assay is Cystadenocarcinoma, Liver (No. 1) (Hamster) (subcutaneous) in C3AKF1 (CHKRF1) mice

## COCc1c(CN(CCCl)CCCl)cnc(C)c1O
dose: 1.25 mg/kg/injection, vehicle: carboxymethylcellulose (CMC)
  T/C: 137 % of control [survivor count not shown]
dose: 2.5 mg/kg/injection, vehicle: carboxymethylcellulose (CMC)
  T/C: 104 % of control [survivor count not shown]
dose: 5.0 mg/kg/injection, vehicle: carboxymethylcellulose (CMC)
  T/C: 86 % of control [survivor count not shown]
dose: 10.0 mg/kg/injection, vehicle: carboxymethylcellulose (CMC)
  T/C: 108 % of control [survivor count not shown]

## Cc1cc2nc(CN(CCCl)CCCl)[nH]c2cc1C
dose: 7.0 mg/kg/injection, vehicle: carboxymethylcellulose (CMC)
  T/C: 81 % of control [survivor count not shown]
dose: 15.0 mg/kg/injection, vehicle: carboxymethylcellulose (CMC)
  T/C: 107 [survivor count not shown] and 108 % of control [survivor count not shown]
dose: 30.0 mg/kg/injection, vehicle: carboxymethylcellulose (CMC)
  T/C: 63 [survivor count not shown] and 82 % of control [survivor count not shown]

## ClCCCCC(CCl)NCCCl (stereo not given)
dose: 8.7 mg/kg/injection, vehicle: saline
  T/C: 94 % of control [survivor count not shown]
dose: 17.5 mg/kg/injection, vehicle: saline
  T/C: 110 % of control [survivor count not shown]
dose: 35.0 mg/kg/injection, vehicle: saline
  T/C: 105 % of control [survivor count not shown]
